One substance from paper PMC8647013 can be followed below.

The chains behind the UniProt entries cited, without tags or fusion partners. Where a name states a change or a piece, a line headed by the entry shows the natural chain unless it says otherwise.
UniProt Q9HC35: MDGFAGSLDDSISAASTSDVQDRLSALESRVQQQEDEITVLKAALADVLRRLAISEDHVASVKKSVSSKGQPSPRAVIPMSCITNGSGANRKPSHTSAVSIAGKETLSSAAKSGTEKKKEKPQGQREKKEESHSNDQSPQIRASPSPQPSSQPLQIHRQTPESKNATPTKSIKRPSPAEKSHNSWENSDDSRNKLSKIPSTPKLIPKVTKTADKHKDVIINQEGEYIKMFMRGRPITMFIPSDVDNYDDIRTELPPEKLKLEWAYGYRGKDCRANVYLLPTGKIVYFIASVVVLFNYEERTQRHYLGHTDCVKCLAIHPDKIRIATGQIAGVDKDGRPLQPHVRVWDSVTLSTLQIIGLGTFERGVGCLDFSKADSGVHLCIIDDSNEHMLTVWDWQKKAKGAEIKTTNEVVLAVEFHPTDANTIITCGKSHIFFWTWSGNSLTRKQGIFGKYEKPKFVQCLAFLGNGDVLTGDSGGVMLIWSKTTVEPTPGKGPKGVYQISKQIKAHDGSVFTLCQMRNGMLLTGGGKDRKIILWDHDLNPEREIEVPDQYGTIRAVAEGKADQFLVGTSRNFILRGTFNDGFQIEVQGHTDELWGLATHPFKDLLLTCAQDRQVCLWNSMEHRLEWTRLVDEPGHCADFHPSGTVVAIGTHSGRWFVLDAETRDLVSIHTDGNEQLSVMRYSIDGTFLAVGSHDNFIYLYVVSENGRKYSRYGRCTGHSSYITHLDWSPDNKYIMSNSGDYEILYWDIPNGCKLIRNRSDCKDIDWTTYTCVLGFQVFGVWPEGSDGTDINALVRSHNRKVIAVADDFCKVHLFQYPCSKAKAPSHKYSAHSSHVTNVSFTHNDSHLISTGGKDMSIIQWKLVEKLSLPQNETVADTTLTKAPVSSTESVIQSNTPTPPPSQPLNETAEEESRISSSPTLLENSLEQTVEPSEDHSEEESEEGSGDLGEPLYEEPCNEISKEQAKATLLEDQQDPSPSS
UniProt Q9UM73: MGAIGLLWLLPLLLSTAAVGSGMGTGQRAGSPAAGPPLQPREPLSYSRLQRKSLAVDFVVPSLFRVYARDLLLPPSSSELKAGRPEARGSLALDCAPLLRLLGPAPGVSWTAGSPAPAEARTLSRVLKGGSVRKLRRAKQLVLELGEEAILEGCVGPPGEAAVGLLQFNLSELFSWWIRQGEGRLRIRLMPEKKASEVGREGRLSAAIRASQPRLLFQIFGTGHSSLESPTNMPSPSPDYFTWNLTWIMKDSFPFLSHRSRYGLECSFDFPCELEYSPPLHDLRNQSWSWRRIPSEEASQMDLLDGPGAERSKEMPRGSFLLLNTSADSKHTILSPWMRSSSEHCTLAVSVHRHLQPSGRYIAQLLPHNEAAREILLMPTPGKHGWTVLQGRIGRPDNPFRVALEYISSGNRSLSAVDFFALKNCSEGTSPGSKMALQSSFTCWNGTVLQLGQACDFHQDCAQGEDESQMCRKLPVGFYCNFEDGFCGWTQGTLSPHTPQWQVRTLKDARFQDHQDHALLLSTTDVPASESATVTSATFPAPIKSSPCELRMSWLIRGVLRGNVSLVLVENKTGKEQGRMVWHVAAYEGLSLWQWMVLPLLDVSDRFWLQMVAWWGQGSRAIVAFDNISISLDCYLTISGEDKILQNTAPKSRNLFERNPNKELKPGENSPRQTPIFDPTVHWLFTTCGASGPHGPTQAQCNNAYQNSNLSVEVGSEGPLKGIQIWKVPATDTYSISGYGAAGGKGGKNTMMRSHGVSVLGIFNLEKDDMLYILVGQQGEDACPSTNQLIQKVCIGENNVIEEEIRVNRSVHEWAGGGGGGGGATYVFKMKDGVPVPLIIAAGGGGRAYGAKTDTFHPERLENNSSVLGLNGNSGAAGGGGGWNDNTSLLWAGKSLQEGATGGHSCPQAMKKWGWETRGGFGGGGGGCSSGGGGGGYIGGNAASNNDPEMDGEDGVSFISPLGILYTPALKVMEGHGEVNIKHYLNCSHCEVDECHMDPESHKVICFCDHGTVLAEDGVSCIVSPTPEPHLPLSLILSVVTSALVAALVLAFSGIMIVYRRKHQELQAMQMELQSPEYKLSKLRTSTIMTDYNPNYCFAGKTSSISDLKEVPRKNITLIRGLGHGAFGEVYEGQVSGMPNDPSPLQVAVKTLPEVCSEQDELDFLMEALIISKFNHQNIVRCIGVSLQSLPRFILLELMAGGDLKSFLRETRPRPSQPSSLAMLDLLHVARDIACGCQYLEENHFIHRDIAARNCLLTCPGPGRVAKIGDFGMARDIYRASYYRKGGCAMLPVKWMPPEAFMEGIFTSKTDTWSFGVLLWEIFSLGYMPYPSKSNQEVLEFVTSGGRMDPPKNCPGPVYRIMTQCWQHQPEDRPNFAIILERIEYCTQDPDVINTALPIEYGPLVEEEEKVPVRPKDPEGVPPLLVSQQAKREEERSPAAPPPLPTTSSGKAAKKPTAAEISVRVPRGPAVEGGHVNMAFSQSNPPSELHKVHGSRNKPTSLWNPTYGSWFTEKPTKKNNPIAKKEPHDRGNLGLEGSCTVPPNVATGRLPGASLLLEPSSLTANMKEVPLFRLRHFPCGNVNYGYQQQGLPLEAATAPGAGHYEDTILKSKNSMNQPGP
UniProt P62993: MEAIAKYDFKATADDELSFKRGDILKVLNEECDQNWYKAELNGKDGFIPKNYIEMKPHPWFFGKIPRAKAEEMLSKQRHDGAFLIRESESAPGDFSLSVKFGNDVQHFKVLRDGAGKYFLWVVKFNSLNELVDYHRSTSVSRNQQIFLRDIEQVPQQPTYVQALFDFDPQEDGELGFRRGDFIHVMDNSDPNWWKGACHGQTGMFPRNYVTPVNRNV

These are yes or no findings as the source states them, for the method shown. In cells and extracts the contact can be indirect. Some results given as binding are weak or reduced against the parent protein; the word gives no strength.

Assay [1] addresses T1, EML4‐ALK V3 (doxycycline-induced, Beas2B V3 cells) (human) (UniProt Q9HC35+Q9UM73). As to the kind of experiment: condition: only cells treated with ALK inhibitors (ceritinib 500 nM, alectinib 100 nM or lorlatinib 100 nM) for 4 h; proximity ligation; Duolink in situ PLA with GRB2 and ALK antibodies in fixed, permeabilised H2228 and Beas2B V3 cells; cells treated with ALK inhibitors (ceritinib, alectinib or lorlatinib) for 4 h before fixation.

For assay [2], the target named is T1, EML4‐ALK V3 (doxycycline-induced, Beas2B V3 cells) (human). As to the kind of experiment: proximity ligation; Duolink in situ PLA with GRB2 and ALK antibodies in fixed, permeabilised H2228 and Beas2B V3 cells; DMSO control cells.

With GRB2 (from UniProt P62993 1-217), the binding entry in assay [1] was “no binding”; in assay [2], “binds”.
